Drawing on paper PMC10755771, this text covers binding for one molecule.

For the assay, the target named is GST-AIP4 (atrophin-interacting protein 4), Q96J02. Briefly: pull-down; GST-AIP4 or GST immobilised on glutathione-Sepharose (600 nM in the methods, 1 μM in the legend); purified WT βarr1 or βarr1-4A (100 nM in the methods, 500 ng in the legend); 4 °C, 2 h; 20 mM Tris-HCl pH 7.5, 150 mM NaCl, 0.1% Triton X-100, 1 mM DTT; bound βarr1 detected by …; both purified. Particulars: remark: other sources report otherwise.

These are yes or no findings as the source states them, for the method shown. Some results given as binding are weak or reduced against the parent protein; the word gives no strength. Where a sequence is shown, tags or fusion partners need not be part of it.

B1: βarrestin1 (untagged, wild type), P49407 1-418 (protein)
chain: MGDKGTRVFKKASPNGKLTVYLGKRDFVDHIDLVDPVDGVVLVDPEYLKERRVYVTLTCAFRYGREDLDVLGLTFRKDLFVANVQSFPPAPEDKKPLTRLQERLIKKLGEHAYPFTFEIPPNLPCSVTLQPGPEDTGKACGVDYEVKAFCAENLEEKIHKRNSVRLVIRKVQYAPERPGPQPTAETTRQFLMSDKPLHLEASLDKEIYYHGEPISVNVHVTNNTNKTVKKIKISVRQYADICLFNTAQYKCPVAMEEADDTVAPSSTFCKVYTLTPFLANNREKRGLALDGKLKHEDTNLASSTLLREGANREILGIIVSYKVKVKLVVSRGGLLGDLASSDVAVELPFTLMHPKPKEEPPHREVPENETPVDTNLIELDTNDDDIVFEDFARQRLKGMKDDKEEEEDGTGSPQLNNR
B1: the binding entry is given as “binds”.
